Measured values taken from PMC9964377.
Results are given in words; binding and its absence hold for the method and conditions named. In cells and extracts the contact can be indirect. Some binding calls cover weakened binding; strength is not graded here. Tags and fused reporters may be left off the sequences shown.

The chains behind the UniProt entries cited, without tags or fusion partners.
UniProt Q06945: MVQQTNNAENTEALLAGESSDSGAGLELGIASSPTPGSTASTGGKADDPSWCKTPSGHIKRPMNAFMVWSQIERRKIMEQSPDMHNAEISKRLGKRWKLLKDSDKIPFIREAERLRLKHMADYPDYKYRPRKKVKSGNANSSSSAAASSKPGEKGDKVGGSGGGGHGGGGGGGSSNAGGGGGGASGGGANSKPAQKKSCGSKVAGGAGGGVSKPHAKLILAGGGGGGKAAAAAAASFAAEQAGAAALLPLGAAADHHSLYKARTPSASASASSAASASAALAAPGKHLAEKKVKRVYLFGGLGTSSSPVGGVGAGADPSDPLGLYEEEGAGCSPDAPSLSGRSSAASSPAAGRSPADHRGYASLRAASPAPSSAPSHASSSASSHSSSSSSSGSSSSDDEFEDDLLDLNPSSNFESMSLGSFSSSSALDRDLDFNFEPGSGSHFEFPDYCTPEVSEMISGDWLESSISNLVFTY

Target: T1, POU3F2, Small BiT fusion protein (UniProt P20265)
T1 sequence: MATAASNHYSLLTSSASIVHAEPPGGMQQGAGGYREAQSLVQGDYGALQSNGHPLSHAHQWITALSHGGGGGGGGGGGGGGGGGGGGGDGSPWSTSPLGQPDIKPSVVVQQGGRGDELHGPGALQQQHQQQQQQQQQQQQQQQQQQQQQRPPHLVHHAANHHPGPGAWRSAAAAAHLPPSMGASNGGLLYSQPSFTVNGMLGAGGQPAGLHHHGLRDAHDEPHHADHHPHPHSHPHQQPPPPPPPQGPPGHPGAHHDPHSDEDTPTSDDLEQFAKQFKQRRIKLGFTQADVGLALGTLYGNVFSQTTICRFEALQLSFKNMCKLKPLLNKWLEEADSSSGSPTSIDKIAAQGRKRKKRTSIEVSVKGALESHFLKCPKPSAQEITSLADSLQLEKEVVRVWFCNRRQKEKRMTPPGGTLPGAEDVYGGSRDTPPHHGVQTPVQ
Assay: split reporter; HEK293 cells co-transfected with 250 ng SOX4-Large BiT vector (pBiT1.1-C-myc) and 250 ng POU3F2-Small BiT vector (pBiT2.1-N-FLAG); luminescence read one day after transfection (NanoBiT PPI System)

Substance: SOX4 wildtype, Large BiT fusion protein (from UniProt Q06945 1-474)
- binding: binds
